# Results as given in the supplement of paper PMC8728848.
# The list shows a part of the results.
# What was measured:
# Assay in all cases: glycan array binding signal (z-score within array); higher = stronger binding
# Conditions in all cases: glycan notation: IUPAC condensed, linker removed
# Fuc(a1-2)Gal = molecular target: Fuc(a1-2)Gal
# How it was run: (§1)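 The binding signal is a Z-score computed within each array. Data were drawn from 3228 arrays in the Consortium for Functional Glycomics database, restricted to those with a known protein sequence. Scores were averaged over arrays of the same protein sequence at different concentrations or buffers, and over linkers, and negative values can be taken as non-binding.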
# Fuc(a1-2)Gal(b1-3)GalNAc = molecular target: Fuc(a1-2)Gal(b1-3)GalNAc
# How it was run: as §1
# [1] = molecular target: Fuc(a1-2)Gal(b1-3)GalNAc(a1-3)[Fuc(a1-2)]Gal(b1-4)Glc
# How it was run: as §1
# [2] = molecular target: Fuc(a1-2)Gal(b1-3)GalNAc(a1-3)[Fuc(a1-2)]Gal(b1-4)GlcNAc
# How it was run: as §1
# [3] = molecular target: Fuc(a1-2)Gal(b1-3)GalNAc(b1-3)Gal
# How it was run: as §1
# [4] = molecular target: Fuc(a1-2)Gal(b1-3)GalNAc(b1-3)Gal(a1-4)Gal(b1-4)Glc
# How it was run: as §1
# [5] = molecular target: Fuc(a1-2)Gal(b1-3)GalNAc(b1-4)[Neu5Ac(a2-3)]Gal(b1-4)Glc
# How it was run: as §1
# Fuc(a1-2)Gal(b1-3)GlcNAc = molecular target: Fuc(a1-2)Gal(b1-3)GlcNAc
# How it was run: as §1
# [6] = molecular target: Fuc(a1-2)Gal(b1-3)GlcNAc(b1-2)Man(a1-3)[Fuc(a1-2)Gal(b1-3)GlcNAc(b1-2)Man(a1-6)]Man(b1-4)GlcNAc(b1-4)GlcNAc
# How it was run: as §1
# [7] = molecular target: Fuc(a1-2)Gal(b1-3)GlcNAc(b1-2)Man(a1-3)[Fuc(a1-2)Gal(b1-3)GlcNAc(b1-2)Man(a1-6)]Man(b1-4)GlcNAc(b1-4)[Fuc(a1-6)]GlcNAc
# How it was run: as §1
# [8] = molecular target: Fuc(a1-2)Gal(b1-3)GlcNAc(b1-3)Gal(b1-4)Glc
# How it was run: as §1
# [9] = molecular target: Fuc(a1-2)Gal(b1-3)GlcNAc(b1-3)GalNAc
# How it was run: as §1
# [10] = molecular target: Fuc(a1-2)Gal(b1-3)GlcNAc(b1-3)[Fuc(a1-3)[Gal(b1-4)]GlcNAc(b1-6)]Gal(b1-4)Glc
# How it was run: as §1
# [11] = molecular target: Fuc(a1-2)Gal(b1-3)GlcNAc(b1-3)[Gal(b1-4)GlcNAc(b1-6)]Gal(b1-4)Glc
# How it was run: as §1
# [12] = molecular target: Fuc(a1-2)Gal(b1-3)GlcNAc(b1-3)[Neu5Ac(a2-6)Gal(b1-4)GlcNAc(b1-6)]Gal(b1-4)Glc
# How it was run: as §1
# [13] = molecular target: Fuc(a1-2)Gal(b1-3)[Fuc(a1-4)]GlcNAc
# How it was run: as §1
# [14] = molecular target: Fuc(a1-2)Gal(b1-3)[Fuc(a1-4)]GlcNAc(b1-2)Man(a1-3)[Fuc(a1-2)Gal(b1-3)[Fuc(a1-4)]GlcNAc(b1-2)Man(a1-6)]Man(b1-4)GlcNAc(b1-4)GlcNAc
# How it was run: as §1
# [15] = molecular target: Fuc(a1-2)Gal(b1-3)[Fuc(a1-4)]GlcNAc(b1-3)[Fuc(a1-3)[Gal(b1-4)]GlcNAc(b1-6)]Gal(b1-4)Glc
# How it was run: as §1
# [16] = molecular target: Fuc(a1-2)Gal(b1-3)[Fuc(a1-4)]GlcNAc(b1-3)[Gal(b1-4)GlcNAc(b1-6)]Gal(b1-4)Glc
# How it was run: as §1
# Fuc(a1-2)Gal(b1-4)Glc = molecular target: Fuc(a1-2)Gal(b1-4)Glc
# How it was run: as §1
# Fuc(a1-2)Gal(b1-4)Glc6S = molecular target: Fuc(a1-2)Gal(b1-4)Glc6S
# How it was run: as §1
# Fuc(a1-2)Gal(b1-4)GlcNAc = molecular target: Fuc(a1-2)Gal(b1-4)GlcNAc
# How it was run: as §1
# [17] = molecular target: Fuc(a1-2)Gal(b1-4)GlcNAc(b1-2)Man(a1-3)[Fuc(a1-2)Gal(b1-4)GlcNAc(b1-2)Man(a1-6)]Man(b1-4)GlcNAc(b1-4)GlcNAc
# How it was run: as §1
# [18] = molecular target: Fuc(a1-2)Gal(b1-4)GlcNAc(b1-2)Man(a1-3)[Fuc(a1-2)Gal(b1-4)GlcNAc(b1-2)Man(a1-6)]Man(b1-4)GlcNAc(b1-4)[Fuc(a1-6)]GlcNAc
# How it was run: as §1
# [19] = molecular target: Fuc(a1-2)Gal(b1-4)GlcNAc(b1-2)[Fuc(a1-2)Gal(b1-4)GlcNAc(b1-4)]Man(a1-3)[Fuc(a1-2)Gal(b1-4)GlcNAc(b1-2)Man(a1-6)]Man(b1-4)GlcNAc(b1-4)GlcNAc
# How it was run: as §1
# [20] = molecular target: Fuc(a1-2)Gal(b1-4)GlcNAc(b1-3)Gal(b1-4)GlcNAc
# How it was run: as §1
# [21] = molecular target: Fuc(a1-2)Gal(b1-4)GlcNAc(b1-3)Gal(b1-4)GlcNAc(b1-3)Gal(b1-4)GlcNAc
# How it was run: as §1
# [22] = molecular target: Fuc(a1-2)Gal(b1-4)GlcNAc(b1-3)GalNAc
# How it was run: as §1
# [23] = molecular target: Fuc(a1-2)Gal(b1-4)GlcNAc(b1-3)[Fuc(a1-2)Gal(b1-4)GlcNAc(b1-6)]GalNAc
# How it was run: as §1
# [24] = molecular target: Fuc(a1-2)Gal(b1-4)GlcNAc6S
# How it was run: as §1
binder,measurement,setting,value
"MFG-E8 (Homo sapiens), Q08431 (protein) MPRPRLLAALCGALLCAPSLLVALDICSKNPCHNGGLCEEISQEVRGDVFPSYTCTCLKGYAGNHCETKCVEPLGLENGNIANSQIAASSVRVTFLGLQHWVPELARLNRAGMVNAWTPSSNDDNPWIQVNLLRRMWVTGVVTQGASRLASHEYLKAFKVAYSLNGHEFDFIHDVNKKHKEFVGNWNKNAVHVNLFETPVEAQYVRLYPTSCHTACTLRFELLGCELNGCANPLGLKNNSIPDKQITASSSYKTWGLHLFSWNPSYARLDKQGNFNAWVAGSYGNDQWLQVDLGSSKEVTGIITQGARNFGSVQFVASYKVAYSNDSANWTEYQDPRTGSSKIFPGNWDNHSHKKNLFETPILARYVRILPVAWHNRIALRLELLGC",glycan array binding signal (z-score),Fuc(a1-2)Gal,-0.699
same,glycan array binding signal (z-score),Fuc(a1-2)Gal(b1-3)GalNAc,-0.656
same,glycan array binding signal (z-score),[1],-0.654
same,glycan array binding signal (z-score),[2],-0.511
same,glycan array binding signal (z-score),[3],-0.196
same,glycan array binding signal (z-score),[4],0.75
same,glycan array binding signal (z-score),[5],0.211
same,glycan array binding signal (z-score),Fuc(a1-2)Gal(b1-3)GlcNAc,-0.382
same,glycan array binding signal (z-score),[6],0.999
same,glycan array binding signal (z-score),[7],-0.633
same,glycan array binding signal (z-score),[8],-0.126
same,glycan array binding signal (z-score),[9],-0.517
same,glycan array binding signal (z-score),[10],-0.329
same,glycan array binding signal (z-score),[11],-0.539
same,glycan array binding signal (z-score),[12],-0.33
same,glycan array binding signal (z-score),[13],-0.597
same,glycan array binding signal (z-score),[14],2.2
same,glycan array binding signal (z-score),[15],0.03
same,glycan array binding signal (z-score),[16],0.738
same,glycan array binding signal (z-score),Fuc(a1-2)Gal(b1-4)Glc,0.071
same,glycan array binding signal (z-score),Fuc(a1-2)Gal(b1-4)Glc6S,-0.507
same,glycan array binding signal (z-score),Fuc(a1-2)Gal(b1-4)GlcNAc,-0.644
same,glycan array binding signal (z-score),[17],-0.011
same,glycan array binding signal (z-score),[18],-0.173
same,glycan array binding signal (z-score),[19],0.123
same,glycan array binding signal (z-score),[20],-0.457
same,glycan array binding signal (z-score),[21],-0.587
same,glycan array binding signal (z-score),[22],0.141
same,glycan array binding signal (z-score),[23],-0.713
same,glycan array binding signal (z-score),[24],0.023

# Part of the list above in a different format.
binder	measurement	setting	value
MFG-E8 (Homo sapiens), Q08431 (protein) MPRPRLLAALCGALLCAPSLLVALDICSKNPCHNGGLCEEISQEVRGDVFPSYTCTCLKGYAGNHCETKCVEPLGLENGNIANSQIAASSVRVTFLGLQHWVPELARLNRAGMVNAWTPSSNDDNPWIQVNLLRRMWVTGVVTQGASRLASHEYLKAFKVAYSLNGHEFDFIHDVNKKHKEFVGNWNKNAVHVNLFETPVEAQYVRLYPTSCHTACTLRFELLGCELNGCANPLGLKNNSIPDKQITASSSYKTWGLHLFSWNPSYARLDKQGNFNAWVAGSYGNDQWLQVDLGSSKEVTGIITQGARNFGSVQFVASYKVAYSNDSANWTEYQDPRTGSSKIFPGNWDNHSHKKNLFETPILARYVRILPVAWHNRIALRLELLGC	glycan array binding signal (z-score)	[7]	-0.633
same	glycan array binding signal (z-score)	[12]	-0.33
